Results from publication PMC8816719.
Results are given in words; binding and its absence hold for the method and conditions named. In cells and extracts the contact can be indirect. These calls come from enrichment with a bait or labelling near it, and not all partners need be listed. One block for each molecule: values may come before it.

Sequences of proteins named here, by UniProt entry; tags and fusion partners are left off. A change or cut given only in a name is not applied to a line headed by its entry. Residues count along the entry.
UniProt O95994, residues 21-175: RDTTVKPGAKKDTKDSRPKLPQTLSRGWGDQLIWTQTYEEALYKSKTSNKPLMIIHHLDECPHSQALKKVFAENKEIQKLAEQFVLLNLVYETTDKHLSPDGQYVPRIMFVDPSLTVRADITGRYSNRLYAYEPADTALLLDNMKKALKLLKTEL
UniProt O75947: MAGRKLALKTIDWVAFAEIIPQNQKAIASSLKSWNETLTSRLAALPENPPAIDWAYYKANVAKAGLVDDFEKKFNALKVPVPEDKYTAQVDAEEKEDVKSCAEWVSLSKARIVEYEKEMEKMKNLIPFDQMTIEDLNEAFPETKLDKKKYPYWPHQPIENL
UniProt P23284, residues 34-216: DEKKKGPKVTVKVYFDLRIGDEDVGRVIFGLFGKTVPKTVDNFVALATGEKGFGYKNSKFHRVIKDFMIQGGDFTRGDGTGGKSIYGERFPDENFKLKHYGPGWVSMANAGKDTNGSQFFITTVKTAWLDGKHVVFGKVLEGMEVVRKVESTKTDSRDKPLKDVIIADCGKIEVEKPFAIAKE
UniProt Q9NYU2, residues 43-1555: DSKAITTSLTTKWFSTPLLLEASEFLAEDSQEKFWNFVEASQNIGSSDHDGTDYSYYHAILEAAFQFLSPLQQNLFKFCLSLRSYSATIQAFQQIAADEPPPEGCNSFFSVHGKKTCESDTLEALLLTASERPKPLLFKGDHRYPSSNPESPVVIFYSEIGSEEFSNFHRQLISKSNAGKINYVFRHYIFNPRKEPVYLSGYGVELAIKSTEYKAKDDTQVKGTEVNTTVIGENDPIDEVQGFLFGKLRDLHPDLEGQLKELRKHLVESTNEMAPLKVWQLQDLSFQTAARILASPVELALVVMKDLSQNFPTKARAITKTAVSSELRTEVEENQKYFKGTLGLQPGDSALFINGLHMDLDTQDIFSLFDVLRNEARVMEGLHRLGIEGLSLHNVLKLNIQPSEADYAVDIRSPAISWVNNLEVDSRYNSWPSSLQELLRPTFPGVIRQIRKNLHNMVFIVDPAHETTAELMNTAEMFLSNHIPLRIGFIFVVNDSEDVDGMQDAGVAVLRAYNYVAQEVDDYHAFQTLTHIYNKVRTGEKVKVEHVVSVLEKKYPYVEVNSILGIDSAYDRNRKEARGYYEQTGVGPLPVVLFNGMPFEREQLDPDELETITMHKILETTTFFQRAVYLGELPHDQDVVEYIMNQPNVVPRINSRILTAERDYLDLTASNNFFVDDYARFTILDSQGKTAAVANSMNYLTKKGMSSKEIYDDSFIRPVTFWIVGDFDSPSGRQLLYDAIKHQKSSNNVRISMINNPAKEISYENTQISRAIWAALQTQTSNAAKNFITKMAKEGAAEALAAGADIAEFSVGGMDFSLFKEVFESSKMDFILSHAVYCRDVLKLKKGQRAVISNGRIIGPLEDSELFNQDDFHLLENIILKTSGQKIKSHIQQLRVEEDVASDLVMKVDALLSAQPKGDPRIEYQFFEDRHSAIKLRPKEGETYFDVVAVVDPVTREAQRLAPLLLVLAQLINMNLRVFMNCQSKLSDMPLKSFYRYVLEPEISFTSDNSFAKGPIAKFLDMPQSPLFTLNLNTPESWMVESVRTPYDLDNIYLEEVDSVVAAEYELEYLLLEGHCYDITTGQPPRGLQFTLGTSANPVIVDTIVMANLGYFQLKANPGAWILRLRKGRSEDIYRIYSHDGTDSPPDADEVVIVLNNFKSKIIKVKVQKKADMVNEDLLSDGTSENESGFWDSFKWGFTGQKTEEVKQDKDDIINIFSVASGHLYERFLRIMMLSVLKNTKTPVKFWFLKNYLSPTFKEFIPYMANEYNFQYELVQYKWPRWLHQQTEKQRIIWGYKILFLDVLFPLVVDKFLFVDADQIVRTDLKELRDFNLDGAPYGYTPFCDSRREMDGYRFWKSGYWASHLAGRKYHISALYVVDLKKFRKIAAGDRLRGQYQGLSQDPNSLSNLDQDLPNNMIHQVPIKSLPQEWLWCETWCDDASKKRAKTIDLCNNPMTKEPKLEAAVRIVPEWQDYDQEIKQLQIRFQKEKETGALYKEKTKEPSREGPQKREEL
UniProt O75369: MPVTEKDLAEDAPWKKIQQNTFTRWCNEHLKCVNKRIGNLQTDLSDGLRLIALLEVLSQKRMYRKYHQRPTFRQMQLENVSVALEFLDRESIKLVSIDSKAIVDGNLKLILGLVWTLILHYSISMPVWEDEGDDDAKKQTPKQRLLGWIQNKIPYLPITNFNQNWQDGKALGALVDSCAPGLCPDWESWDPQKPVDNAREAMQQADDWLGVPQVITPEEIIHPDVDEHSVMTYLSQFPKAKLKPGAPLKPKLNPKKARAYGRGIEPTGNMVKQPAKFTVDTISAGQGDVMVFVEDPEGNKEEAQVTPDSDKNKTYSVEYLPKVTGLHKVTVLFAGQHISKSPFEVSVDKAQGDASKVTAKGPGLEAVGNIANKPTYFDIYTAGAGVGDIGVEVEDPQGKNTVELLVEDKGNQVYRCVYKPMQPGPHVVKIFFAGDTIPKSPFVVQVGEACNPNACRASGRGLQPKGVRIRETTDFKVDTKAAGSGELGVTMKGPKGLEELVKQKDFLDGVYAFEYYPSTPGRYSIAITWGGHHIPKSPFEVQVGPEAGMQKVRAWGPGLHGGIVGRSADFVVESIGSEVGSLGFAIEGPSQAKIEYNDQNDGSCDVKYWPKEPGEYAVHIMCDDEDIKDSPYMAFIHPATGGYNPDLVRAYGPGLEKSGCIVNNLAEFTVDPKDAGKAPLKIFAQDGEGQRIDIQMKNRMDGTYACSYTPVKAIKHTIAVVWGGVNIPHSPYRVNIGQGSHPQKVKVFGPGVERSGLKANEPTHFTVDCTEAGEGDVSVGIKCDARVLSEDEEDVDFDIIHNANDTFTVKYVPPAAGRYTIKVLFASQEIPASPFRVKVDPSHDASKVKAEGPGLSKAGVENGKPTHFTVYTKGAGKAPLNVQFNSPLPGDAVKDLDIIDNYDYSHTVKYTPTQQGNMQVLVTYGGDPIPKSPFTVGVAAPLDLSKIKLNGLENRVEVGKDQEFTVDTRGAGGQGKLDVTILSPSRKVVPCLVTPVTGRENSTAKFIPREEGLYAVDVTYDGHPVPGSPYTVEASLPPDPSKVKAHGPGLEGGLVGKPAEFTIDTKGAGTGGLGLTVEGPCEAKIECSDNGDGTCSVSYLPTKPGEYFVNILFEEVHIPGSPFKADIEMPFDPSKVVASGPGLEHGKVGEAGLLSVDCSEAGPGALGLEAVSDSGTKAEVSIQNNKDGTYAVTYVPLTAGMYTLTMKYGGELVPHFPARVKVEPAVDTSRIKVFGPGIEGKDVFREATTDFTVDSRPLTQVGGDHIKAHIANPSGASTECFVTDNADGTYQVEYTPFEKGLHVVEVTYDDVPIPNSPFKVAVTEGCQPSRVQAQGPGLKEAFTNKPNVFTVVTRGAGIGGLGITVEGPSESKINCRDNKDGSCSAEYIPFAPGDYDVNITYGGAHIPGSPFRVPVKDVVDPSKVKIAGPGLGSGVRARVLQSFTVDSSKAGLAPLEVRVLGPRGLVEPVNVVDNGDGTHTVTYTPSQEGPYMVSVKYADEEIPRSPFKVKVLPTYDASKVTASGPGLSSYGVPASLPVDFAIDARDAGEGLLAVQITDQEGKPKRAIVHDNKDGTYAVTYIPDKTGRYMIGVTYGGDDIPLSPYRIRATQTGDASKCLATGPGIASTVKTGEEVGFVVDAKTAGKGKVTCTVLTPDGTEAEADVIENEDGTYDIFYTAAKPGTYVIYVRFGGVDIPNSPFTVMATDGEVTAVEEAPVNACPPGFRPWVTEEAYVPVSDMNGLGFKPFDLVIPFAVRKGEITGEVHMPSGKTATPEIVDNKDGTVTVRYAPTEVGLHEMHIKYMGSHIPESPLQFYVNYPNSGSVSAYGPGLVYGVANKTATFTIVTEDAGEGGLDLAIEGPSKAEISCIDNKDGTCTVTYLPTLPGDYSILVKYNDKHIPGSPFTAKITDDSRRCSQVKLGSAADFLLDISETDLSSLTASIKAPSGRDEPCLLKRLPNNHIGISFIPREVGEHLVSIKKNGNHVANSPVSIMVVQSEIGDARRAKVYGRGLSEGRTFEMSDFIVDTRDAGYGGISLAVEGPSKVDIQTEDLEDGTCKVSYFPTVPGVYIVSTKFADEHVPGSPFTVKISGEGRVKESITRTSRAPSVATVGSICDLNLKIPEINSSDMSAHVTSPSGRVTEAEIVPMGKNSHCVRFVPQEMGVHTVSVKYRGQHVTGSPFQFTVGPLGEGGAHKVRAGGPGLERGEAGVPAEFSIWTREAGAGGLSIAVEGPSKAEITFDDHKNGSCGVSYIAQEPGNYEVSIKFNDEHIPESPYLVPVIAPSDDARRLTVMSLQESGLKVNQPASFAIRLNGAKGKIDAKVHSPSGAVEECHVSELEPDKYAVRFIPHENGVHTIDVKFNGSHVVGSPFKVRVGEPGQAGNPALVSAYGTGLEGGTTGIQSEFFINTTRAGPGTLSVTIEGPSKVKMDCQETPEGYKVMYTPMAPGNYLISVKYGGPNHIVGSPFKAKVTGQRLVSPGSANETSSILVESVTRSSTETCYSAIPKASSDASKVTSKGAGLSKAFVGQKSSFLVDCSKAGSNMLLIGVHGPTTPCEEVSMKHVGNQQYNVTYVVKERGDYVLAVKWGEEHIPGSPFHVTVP
UniProt P14314, residues 15-528: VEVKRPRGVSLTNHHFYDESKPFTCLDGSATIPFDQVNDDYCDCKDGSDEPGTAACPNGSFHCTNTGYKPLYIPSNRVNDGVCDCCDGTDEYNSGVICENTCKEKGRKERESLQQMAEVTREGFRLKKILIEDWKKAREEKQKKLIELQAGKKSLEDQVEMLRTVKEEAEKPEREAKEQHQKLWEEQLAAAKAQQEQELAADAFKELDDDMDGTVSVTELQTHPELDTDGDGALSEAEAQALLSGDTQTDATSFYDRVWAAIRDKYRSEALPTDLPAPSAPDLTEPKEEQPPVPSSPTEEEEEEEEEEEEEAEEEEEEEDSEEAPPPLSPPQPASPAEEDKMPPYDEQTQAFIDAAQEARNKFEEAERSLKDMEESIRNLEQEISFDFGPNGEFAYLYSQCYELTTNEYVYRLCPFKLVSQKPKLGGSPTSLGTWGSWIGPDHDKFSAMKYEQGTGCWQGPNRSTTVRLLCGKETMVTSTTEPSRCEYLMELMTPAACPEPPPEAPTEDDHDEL
UniProt P07355: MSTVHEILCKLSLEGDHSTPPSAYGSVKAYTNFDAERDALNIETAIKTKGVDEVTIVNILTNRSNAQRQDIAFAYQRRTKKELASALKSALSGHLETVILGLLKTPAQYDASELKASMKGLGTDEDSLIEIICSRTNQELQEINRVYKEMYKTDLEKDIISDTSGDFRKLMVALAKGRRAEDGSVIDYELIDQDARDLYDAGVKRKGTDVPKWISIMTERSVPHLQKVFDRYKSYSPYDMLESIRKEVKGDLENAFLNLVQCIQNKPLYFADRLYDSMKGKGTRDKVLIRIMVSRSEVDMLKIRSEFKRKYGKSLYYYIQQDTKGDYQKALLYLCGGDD
UniProt P07237, residues 18-508: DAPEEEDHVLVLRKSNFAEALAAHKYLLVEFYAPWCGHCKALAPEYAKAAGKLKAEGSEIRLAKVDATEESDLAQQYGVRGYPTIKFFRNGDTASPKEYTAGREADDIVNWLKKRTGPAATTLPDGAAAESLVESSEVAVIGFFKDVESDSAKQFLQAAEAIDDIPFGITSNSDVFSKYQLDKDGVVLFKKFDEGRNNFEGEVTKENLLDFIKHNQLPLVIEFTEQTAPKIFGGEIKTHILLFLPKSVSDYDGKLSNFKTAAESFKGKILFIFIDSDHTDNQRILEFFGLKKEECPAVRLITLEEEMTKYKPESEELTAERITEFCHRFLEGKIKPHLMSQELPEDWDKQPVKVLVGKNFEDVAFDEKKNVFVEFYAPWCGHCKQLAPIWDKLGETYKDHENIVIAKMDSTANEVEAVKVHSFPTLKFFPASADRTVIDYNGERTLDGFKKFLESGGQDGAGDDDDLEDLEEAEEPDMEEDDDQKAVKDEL
UniProt Q8NBS9, residues 33-432: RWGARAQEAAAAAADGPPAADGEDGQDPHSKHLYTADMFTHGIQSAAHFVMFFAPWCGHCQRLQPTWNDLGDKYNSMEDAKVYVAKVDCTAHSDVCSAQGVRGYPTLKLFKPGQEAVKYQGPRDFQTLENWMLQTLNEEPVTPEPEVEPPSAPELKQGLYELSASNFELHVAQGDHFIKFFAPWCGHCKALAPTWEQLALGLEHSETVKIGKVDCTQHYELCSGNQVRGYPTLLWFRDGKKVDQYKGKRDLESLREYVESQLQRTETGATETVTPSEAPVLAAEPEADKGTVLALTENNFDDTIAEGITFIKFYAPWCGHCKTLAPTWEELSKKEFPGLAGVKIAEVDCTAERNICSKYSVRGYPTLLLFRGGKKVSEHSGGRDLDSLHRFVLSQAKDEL

Tests used:
[1] = target: Anterior gradient 2 (AGR2), endogenous (human (endogenous in T47D, A549)) (UniProt O95994); assay: affinity purification with mass spectrometry; T47D cells crosslinked in vivo with 0.6 mM DSP (control: no DSP); 400 ug lysate incubated overnight at 4 °C with biotinylated E7 peptide on streptavidin-agarose to capture endogenous AGR2 with its partners (F4 peptide as control); elution with 0.1 M glycine pH 2.5; LC-MS/MS with label-free quantification
[2] = target: Anterior gradient 2 (AGR2), stably expressed in H1299-LZ4-AGR2 cells (human) (UniProt O95994); assay: affinity purification with mass spectrometry; DSP-crosslinked H1299-AGR2 (heavy R10K8) and H1299 (light R0K0) lysates mixed 200 ug + 200 ug; overnight at 4 °C with biotinylated E7 peptide on streptavidin-agarose to capture AGR2 with its partners (F4 peptide as control); elution with 0.1 M glycine pH 2.5; LC-MS/MS with SILAC quantification

Molecule: ATP5H (from UniProt O75947 1-161)
binding [1]: binds

Molecule: Calnexin (from UniProt P27824 21-592)
binding [1]: binds

Molecule: Endoplasmic reticulum protein 29 (from UniProt P30040 33-261)
binding [1]: binds

Molecule: Peptidylprolyl isomerase B (cyclophilin B) (from UniProt P23284 34-216)
binding [1]: binds

Molecule: Stress-70 protein (mitochondrial), 75 kDa glucose-regulated chaperone GRP75/HSPA9 (from UniProt P38646 47-679)
binding [1]: binds | binding [2]: binds

Molecule: UGGG1 (from UniProt Q9NYU2 43-1555)
binding [1]: binds

Molecule: calreticulin (CALR) (from UniProt P27797 18-417)
binding [1]: binds | binding [2]: binds

Molecule: endoplasmin (ENPL) (from UniProt P14625 22-803)
binding [1]: binds | binding [2]: binds

Molecule: filamin-B (FLNB) (from UniProt O75369 1-2602)
binding [1]: binds | binding [2]: binds

Molecule: glucosidase 2 subunit beta (GLU2B) (from UniProt P14314 15-528)
binding [1]: binds | binding [2]: binds

B1: Peroxiredoxin 4 (protein, UniProt Q13162 38-271)
chain: WETEERPRTREEECHFYAGGQVYPGEASRVSVADHSLHLSKAKISKPAPYWEGTAVIDGEFKELKLTDYRGKYLVFFFYPLDFTFVCPTEIIAFGDRLEEFRSINTEVVACSVDSQFTHLAWINTPRRQGGLGPIRIPLLSDLTHQISKDYGVYLEDSGHTLRGLFIIDDKGILRQITLNDLPVGRSVDETLRLVQAFQYTDKHGEVCPAGWKPGSETIIPDPAGKLKYFDKLN
binding [1]: binds

B2: Protein disulfide isomerase family A, member 6 (PDIA6) (protein, UniProt Q15084 20-440)
chain: LYSSSDDVIELTPSNFNREVIQSDSLWLVEFYAPWCGHCQRLTPEWKKAATALKDVVKVGAVDADKHHSLGGQYGVQGFPTIKIFGSNKNRPEDYQGGRTGEAIVDAALSALRQLVKDRLGGRSGGYSSGKQGRSDSSSKKDVIELTDDSFDKNVLDSEDVWMVEFYAPWCGHCKNLEPEWAAAASEVKEQTKGKVKLAAVDATVNQVLASRYGIRGFPTIKIFQKGESPVDYDGGRTRSDIVSRALDLFSDNAPPPELLEIINEDIAKRTCEEHQLCVVAVLPHILDTGAAGRNSYLEVLLKLADKYKKKMWGWLWTEAGAQSELETALGIGGFGYPAMAAINARKMKFALLKGSFSEQGINEFLRELSFGRGSTAPVGGGAFPTIVEREPWDGRDGELPVEDDIDLSDVELDDLGKDEL
binding [1]: binds | binding [2]: binds

B3: Thioredoxin (protein, UniProt P10599 1-105)
chain: MVKQIESKTAFQEALDAAGDKLVVVDFSATWCGPCKMIKPFFHSLSEKYSNVIFLEVDVDDCQDVASECEVKCMPTFQFFKKGQKVGEFSGANKEKLEATINELV
binding [1]: binds

B4: CMC2 (protein, UniProt Q9UJS0 1-675)
chain: MAAAKVALTKRADPAELRTIFLKYASIEKNGEFFMSPNDFVTRYLNIFGESQPNPKTVELLSGVVDQTKDGLISFQEFVAFESVLCAPDALFMVAFQLFDKAGKGEVTFEDVKQVFGQTTIHQHIPFNWDSEFVQLHFGKERKRHLTYAEFTQFLLEIQLEHAKQAFVQRDNARTGRVTAIDFRDIMVTIRPHVLTPFVEECLVAAAGGTTSHQVSFSYFNGFNSLLNNMELIRKIYSTLAGTRKDVEVTKEEFVLAAQKFGQVTPMEVDILFQLADLYEPRGRMTLADIERIAPLEEGTLPFNLAEAQRQKASGDSARPVLLQVAESAYRFGLGSVAGAVGATAVYPIDLVKTRMQNQRSTGSFVGELMYKNSFDCFKKVLRYEGFFGLYRGLLPQLLGVAPEKAIKLTVNDFVRDKFMHKDGSVPLAAEILAGGCAGGSQVIFTNPLEIVKIRLQVAGEITTGPRVSALSVVRDLGFFGIYKGAKACFLRDIPFSAIYFPCYAHVKASFANEDGQVSPGSLLLAGAIAGMPAASLVTPADVIKTRLQVAARAGQTTYSGVIDCFRKILREEGPKALWKGAGARVFRSSPQFGVTLLTYELLQRWFYIDFGGVKPMGSEPVPKSRINLPAPNPDHVGGYKLAVATFAGIENKFGLYLPLFKPSVSTSKAIGGGP
binding [1]: binds

B6: Malate dehydrogenase, mitochondrial (protein, UniProt P40926 25-338)
chain: AKVAVLGASGGIGQPLSLLLKNSPLVSRLTLYDIAHTPGVAADLSHIETKAAVKGYLGPEQLPDCLKGCDVVVIPAGVPRKPGMTRDDLFNTNATIVATLTAACAQHCPEAMICVIANPVNSTIPITAEVFKKHGVYNPNKIFGVTTLDIVRANTFVAELKGLDPARVNVPVIGGHAGKTIIPLISQCTPKVDFPQDQLTALTGRIQEAGTEVVKAKAGAGSATLSMAYAGARFVFSLVDAMNGKEGVVECSFVKSQETECTYFSTPLLLGKKGIEKNLGIGKVSSFEEKMISDAIPELKASIKKGEDFVKTLK
binding [1]: binds

B9: HYOU1 (protein, UniProt Q9Y4L1 33-999)
chain: LAVMSVDLGSESMKVAIVKPGVPMEIVLNKESRRKTPVIVTLKENERFFGDSAASMAIKNPKATLRYFQHLLGKQADNPHVALYQARFPEHELTFDPQRQTVHFQISSQLQFSPEEVLGMVLNYSRSLAEDFAEQPIKDAVITVPVFFNQAERRAVLQAARMAGLKVLQLINDNTATALSYGVFRRKDINTTAQNIMFYDMGSGSTVCTIVTYQMVKTKEAGMQPQLQIRGVGFDRTLGGLEMELRLRERLAGLFNEQRKGQRAKDVRENPRAMAKLLREANRLKTVLSANADHMAQIEGLMDDVDFKAKVTRVEFEELCADLFERVPGPVQQALQSAEMSLDEIEQVILVGGATRVPRVQEVLLKAVGKEELGKNINADEAAAMGAVYQAAALSKAFKVKPFVVRDAVVYPILVEFTREVEEEPGIHSLKHNKRVLFSRMGPYPQRKVITFNRYSHDFNFHINYGDLGFLGPEDLRVFGSQNLTTVKLKGVGDSFKKYPDYESKGIKAHFNLDESGVLSLDRVESVFETLVEDSAEEESTLTKLGNTISSLFGGGTTPDAKENGTDTVQEEEESPAEGSKDEPGEQVELKEEAEAPVEDGSQPPPPEPKGDATPEGEKATEKENGDKSEAQKPSEKAEAGPEGVAPAPEGEKKQKPARKRRMVEEIGVELVVLDLPDLPEDKLAQSVQKLQDLTLRDLEKQEREKAANSLEAFIFETQDKLYQPEYQEVSTEEQREEISGKLSAASTWLEDEGVGATTVMLKEKLAELRKLCQGLFFRVEERKKWPERLSALDNLLNHSSMFLKGARLIPEMDQIFTEVEMTTLEKVINETWAWKNATLAEQAKLPATEKPVLLSKDIEAKMMALDREVQYLLNKAKFTKPRPRPKDKNGTRAEPPLNASASDQGEKVIPPAGQTEDAEPISEPEKVETGSEPGDTEPLELGGPGAEPEQKEQSTGQKRPLKNDEL
binding [1]: binds

Second part, the molecule after the results:

binding [1]: binds
Molecule: ATP synthase, H+ transporting, mitochondrial F1 complex, beta polypeptide (from UniProt P06576 48-529)

binding [1]: binds
Molecule: Annexin A2 (from UniProt P07355 1-339)

binding [1]: binds | binding [2]: binds
Molecule: Heat shock 70 kDa protein 5 (glucose-regulated protein, 78 kDa) (from UniProt P11021 19-654)

binding [1]: binds
Molecule: Prolyl 4-hydroxylase, beta polypeptide (PDIA1) (from UniProt P07237 18-508)

binding [1]: binds | binding [2]: binds
Molecule: Protein disulfide isomerase family A, member 3 (PDIA3) (from UniProt P30101 25-505)

binding [1]: binds
Molecule: TPR (from UniProt P12270 1-2363)

binding [1]: binds
Molecule: thioredoxin domain–containing protein 5 (from UniProt Q8NBS9 33-432)

binding [1]: binds
B5: LMAN1 (protein, UniProt P49257 31-510)
chain: DGVGGDPAVALPHRRFEYKYSFKGPHLVQSDGTVPFWAHAGNAIPSSDQIRVAPSLKSQRGSVWTKTKAAFENWEVEVTFRVTGRGRIGADGLAIWYAENQGLEGPVFGSADLWNGVGIFFDSFDNDGKKNNPAIVIIGNNGQIHYDHQNDGASQALASCQRDFRNKPYPVRAKITYYQNTLTVMINNGFTPDKNDYEFCAKVENMIIPAQGHFGISAATGGLADDHDVLSFLTFQLTEPGKEPPTPDKEISEKEKEKYQEEFEHFQQELDKKKEEFQKGHPDLQGQPAEEIFESVGDRELRQVFEGQNRIHLEIKQLNRQLDMILDEQRRYVSSLTEEISKRGAGMPGQHGQITQQELDTVVKTQHEILRQVNEMKNSMSETVRLVSGMQHPGSAGGVYETTQHFIDIKEHLHIVKRDIDNLVQRNMPSNEKPKCPELPPFPSCLSTVHFIIFVVVQTVLFIGYIMYRSQQEAAAKKFF

binding [1]: binds
B7: PDIA4 (protein, UniProt P13667 21-645)
chain: VAGAEGPDEDSSNRENAIEDEEEEEEEDDDEEEDDLEVKEENGVLVLNDANFDNFVADKDTVLLEFYAPWCGHCKQFAPEYEKIANILKDKDPPIPVAKIDATSASVLASRFDVSGYPTIKILKKGQAVDYEGSRTQEEIVAKVREVSQPDWTPPPEVTLVLTKENFDEVVNDADIILVEFYAPWCGHCKKLAPEYEKAAKELSKRSPPIPLAKVDATAETDLAKRFDVSGYPTLKIFRKGRPYDYNGPREKYGIVDYMIEQSGPPSKEILTLKQVQEFLKDGDDVIIIGVFKGESDPAYQQYQDAANNLREDYKFHHTFSTEIAKFLKVSQGQLVVMQPEKFQSKYEPRSHMMDVQGSTQDSAIKDFVLKYALPLVGHRKVSNDAKRYTRRPLVVVYYSVDFSFDYRAATQFWRSKVLEVAKDFPEYTFAIADEEDYAGEVKDLGLSESGEDVNAAILDESGKKFAMEPEEFDSDTLREFVTAFKKGKLKPVIKSQPVPKNNKGPVKVVVGKTFDSIVMDPKKDVLIEFYAPWCGHCKQLEPVYNSLAKKYKGQKGLVIAKMDATANDVPSDRYKVEGFPTIYFAPSGDKKNPVKFEGGDRDLEHLSKFIEEHATKLSRTKEEL

binding [1]: binds
B8: TPP1 (protein, UniProt O14773 196-563)
chain: LHLGVTPSVIRKRYNLTSQDVGSGTSNNSQACAQFLEQYFHDSDLAQFMRLFGGNFAHQASVARVVGQQGRGRAGIEASLDVQYLMSAGANISTWVYSSPGRHEGQEPFLQWLMLLSNESALPHVHTVSYGDDEDSLSSAYIQRVNTELMKAAARGLTLLFASGDSGAGCWSVSGRHQFRPTFPASSPYVTTVGGTSFQEPFLITNEIVDYISGGGFSNVFPRPSYQEEAVTKFLSSSPHLPPSSYFNASGRAYPDVAALSDGYWVVSNRVPIPWVSGTSASTPVFGGILSLINEHRILSGRPPLGFLNPRLYQQHGAGLFDVTRGCHESCLDEEVEGQGFCSGPGWDPVTGWGTPNFPALLKTLLNP
